27 compounds from PubChem BioAssay AID248 (DTP/NCI, 2004) can be followed below.

The structures appear in SMILES notation. The list is a part of this screen's results and no random one: it gathers tests that were run many times, whatever their T/C, doses with no T/C, and many T/C values between a quarter and a half above the control. Further doses and runs are listed elsewhere. T/C: endpoint of the treated group in % of that of the vehicle group. Some doses have a count of surviving animals in place of a T/C: the source holds a T/C of zero for them, seemingly a mark for toxic or unscored doses. Some survivor counts are full or nearly so, which does not show that the dose was tolerated: survival well below the control is almost never listed, so the zero probably covers shortened survival too. Survivors were counted at the toxicity check, usually on the fifth day, unless a day is given; later deaths do not show. Schedules are NCI's codes, taken here to give the interval after Q, in days (D) or hours (H), and the number of doses after X. Some entries were tested several times; their values stand side by side, smallest first. For survival time, this PubChem deposit counts one and a half times the control or more as active, and values a quarter to a half above the control carry no call in these data; other NCI protocols may use other cut-offs.

This experiment concerns L1210 leukemia ip in BDF1 mice, survival T/C. The experiment can be described thus: NCI In Vivo Anticancer Drug Screen. Data for tumor model L1210 Leukemia (intraperitoneal) in B6D2F1 (BDF1) mice. Conditions: T/C endpoint: mean survival time, higher T/C = longer survival.
[1] abbreviates: dose: 100.0 mg/kg/injection, schedule: Q04DX003 (ip), vehicle: Klucel (hydroxypropylcellulose) (HPC).
Setting [2] is: dose: 200.0 mg/kg/injection, schedule: Q04DX003 (ip), vehicle: Klucel (hydroxypropylcellulose) (HPC).
The mark [3] stands for this setting: dose: 400.0 mg/kg/injection, schedule: Q04DX003 (ip), vehicle: Klucel (hydroxypropylcellulose) (HPC).
Setting [4] is: dose: 50.0 mg/kg/injection, schedule: Q01DX009 (ip), vehicle: saline with Tween-80.
Setting [5] is: dose: 400.0 mg/kg/injection, schedule: Q01DX009 (ip), vehicle: saline.
The mark [6] stands for this setting: dose: 50.0 mg/kg/injection, schedule: Q04DX003 (ip), vehicle: saline.
Setting [7] is: dose: 100.0 mg/kg/injection, schedule: Q04DX003 (ip), vehicle: saline.
[8] abbreviates: dose: 200.0 mg/kg/injection, schedule: Q04DX003 (ip), vehicle: saline.
[9] abbreviates: dose: 400.0 mg/kg/injection, schedule: Q04DX003 (ip), vehicle: saline.
Where [10] appears, read: dose: 200.0 mg/kg/injection, schedule: Q04DX003 (ip), vehicle: saline with Tween-80.
[11] abbreviates: dose: 400.0 mg/kg/injection, schedule: Q04DX003 (ip), vehicle: saline with Tween-80.
Where [12] appears, read: dose: 10.0 mg/kg/injection, schedule: Q04DX002 (ip), vehicle: saline + alcohol.
Setting [13] is: dose: 75.0 mg/kg/injection, schedule: Q01DX009 (ip), vehicle: saline with Tween-80.

`NC(=O)N/N=C1/CCN2CCCc3cccc1c32`: the survivor count by setting is: under setting [1], 3 of 6; under setting [2], 0 of 6; under setting [3], 0 of 6.

For the compound `CC(C(=O)C(Cc1ccccc1)c1ccccc1)C1CCC2C3C(OC=O)CC4CC(OC=O)CCC4(C)C3CC(OC=O)C12C` (stereo unspecified), under setting [4], the survivor count was 3 of 3.

As for `CCOC(=O)COc1c(C(C)CC)cc([N+](=O)[O-])cc1[N+](=O)[O-]` (stereo unspecified), the survivor count runs as follows: (dose: 200.0 mg/kg/injection, schedule: Q04DX002 (ip), vehicle: gum acacia) 2 of 3; (dose: 400.0 mg/kg/injection, schedule: Q04DX002 (ip), vehicle: gum acacia) 2 of 3.

With `Nc1nc(N)c2nc3c(nc2n1)C(=O)N(c1ccc(C(=O)O)cc1)C3`, the survivor count (dose: 200.0 mg/kg/injection, schedule: Q01DX009 (ip), vehicle: saline) is 3 of 6 and the survivor count under setting [5] was 0 of 6.

On to `O=[N+]([O-])/C(=C/c1ccccc1)c1ccccc1`, for which the survivor count (dose: 400.0 mg/kg/injection, schedule: Q01DX001 (ip), vehicle: saline) is given as 0 of 4.

`[Cl][Sn]([Cl])([Cl])[Cl]`: the survivor count (dose: 25.0 mg/kg/injection, schedule: Q04DX003 (ip), vehicle: saline) was 0 of 3; the survivor count under setting [6] was 0 of 3; the survivor count under setting [7] is listed as 0 of 3; the survivor count under setting [8] was 1 of 3; the survivor count under setting [9] was 0 of 3.

In the case of `NC(=O)N/N=C\C=N/NC(N)=O`, the survivor count (dose: 400.0 mg/kg/injection, schedule: Q01DX001 (ip), vehicle: Klucel (hydroxypropylcellulose) (HPC)) was 3 of 3.

In the case of `COc1cc(C2N=C(N)N=C(N)N2c2ccc(S(N)(=O)=O)cc2)cc(OC)c1OC` (stereo unspecified), the survivor count (dose: 300.0 mg/kg/injection, schedule: Q01DX001 (ip), vehicle: saline) was 0 of 6.

Consider `CCCCCc1ccc(C(=O)O)cc1`, for which the survivor count was 3 of 6 under setting [10] and 0 of 6 under setting [11].

For `O=C(Nc1ccc([N+](=O)[O-])cc1Cl)Oc1ccc(Cl)cc1Cl`, the survivor count (dose: 400.0 mg/kg/injection, schedule: Q01DX009 (ip), vehicle: carboxymethylcellulose (CMC)) was 3 of 3.

For `C/C(CCC(=O)O)=N\NC(=O)COc1ccc(Cl)cc1Cl`, the survivor count under setting [3] is listed as 0 of 6.

Consider `CCCCn1cnc(=O)c2[nH]cnc21`, for which the survivor count (dose: 25.0 mg/kg/injection, schedule: Q01DX009 (ip), vehicle: saline) is 6 of 6.

For the compound `CCC[CH2][Sn]1([CH2]CCC)[O]CC2(CCCCC2)C[O]1`, the T/C under setting [12] is 144 % of control. Further, the survivor count is reported as 2 of 3 under setting [12]; 2 of 3 (dose: 40.0 mg/kg/injection, schedule: Q04DX002 (ip), vehicle: saline + alcohol); 0 of 3 (dose: 100.0 mg/kg/injection, schedule: Q04DX002 (ip), vehicle: saline + alcohol); 0 of 3 (dose: 200.0 mg/kg/injection, schedule: Q04DX002 (ip), vehicle: saline + alcohol); 0 of 3 (dose: 400.0 mg/kg/injection, schedule: Q04DX002 (ip), vehicle: saline + alcohol).

With `CCOC(=O)c1ccc(NC(=O)Nc2ccc(OC)c([N+](=O)[O-])c2)cc1`, the survivor count (dose: 400.0 mg/kg/injection, schedule: Q01DX009 (ip), vehicle: saline with Tween-80) is recorded as 6 of 6.

Consider `O=C(O)CCC(=O)CC1CCCCC1`, for which the survivor count under setting [11] is on record as 2 of 6.

For `CCOC(=O)CC(C)(C)NCc1ccccc1`, the survivor count runs as follows: under setting [2], 0 of 6; under setting [3], 0 of 6.

As to `O/N=C1\C(Cl)C2CC1C1C=CCC12` (stereo unspecified), the survivor count (dose: 50.0 mg/kg/injection, schedule: Q04DX003 (ip), vehicle: Klucel (hydroxypropylcellulose) (HPC)) is listed as 0 of 6 and the survivor count under setting [1] was 0 of 6.

With `c1ccc2c(c1)O[As](O[As]1Oc3ccccc3O1)O2`, the survivor count (dose: 18.0 mg/kg/injection, schedule: Q01DX009 (ip), vehicle: saline with Tween-80) was 3 of 6; the survivor count (dose: 25.0 mg/kg/injection, schedule: Q04DX003 (ip), vehicle: saline with Tween-80) is recorded as 2 of 6; the survivor count (dose: 28.0 mg/kg/injection, schedule: Q01DX009 (ip), vehicle: saline with Tween-80) was 0 of 6; the survivor count (dose: 40.0 mg/kg/injection, schedule: Q01DX009 (ip), vehicle: saline with Tween-80) is reported as 0 of 6; the survivor count (dose: 50.0 mg/kg/injection, schedule: Q04DX003 (ip), vehicle: saline with Tween-80) was 0 of 6; the survivor count (dose: 100.0 mg/kg/injection, schedule: Q04DX003 (ip), vehicle: saline with Tween-80) is recorded as 0 of 6. Also, the survivor count is, setting by setting: under setting [10], 0 of 6; under setting [11], 0 of 6.

For `C=C(C)C1CNC(C(=O)O)C1CC(=O)O` (stereo unspecified), under “dose: 25.0 mg/kg/injection, schedule: Q01DX009 (ip), vehicle: saline sonified”, the survivor count is listed as 3 of 6.

In the case of `COC1C=COC2(C)Oc3c(C)c(O)c4c(c3C2=O)/C(=N/C2CCC(O)OC2C)C=C(NC(=O)/C(C)=C\C(=O)C2CC2C(O)C(C)C(O)C(C)C(OC(C)=O)C1C)C4=O` (stereo unspecified), the survivor count is reported as 3 of 3 (dose: 200.0 mg/kg/injection, schedule: Q04DX002 (ip), vehicle: saline with Tween-80) and 0 of 3 (dose: 400.0 mg/kg/injection, schedule: Q04DX002 (ip), vehicle: saline with Tween-80).

With `Cn1cnc2c1c(=O)[nH]c(=O)n2C`, the survivor count under setting [5] was 1 of 6.

For the compound `CCCCN(CC)CC#N`, the survivor count under setting [6] was 6 of 6.

With `C[N+](C)(C)c1ccc(N2C(=O)C3C4c5ccccc5C(C3C2=O)[n+]2ccccc24)cc1` (stereo unspecified), the survivor count is, setting by setting: under setting [6], 0 of 6; under setting [7], 0 of 6; under setting [8], 0 of 6; under setting [9], 1 of 6.

`O=C1CCCN(C2CCCCC2)CCC1O` (stereo unspecified): the survivor count (dose: 400.0 mg/kg/injection, schedule: Q04DX003 (ip), vehicle: acetone) was 0 of 6.

As for `O=C(O)COc1ccccc1-c1ccccc1Cl`, the survivor count under setting [3] is listed as 0 of 6.

As for `NC(=O)N(CCCO)/N=C\c1ccc([N+](=O)[O-])o1`, under “dose: 400.0 mg/kg/injection, schedule: Q04DX002 (ip), vehicle: Klucel (hydroxypropylcellulose) (HPC)”, the survivor count is 0 of 3.

In the case of `FC(F)c1nc2nc(Cl)c(Cl)nc2[nH]1`, the T/C reads like this: (dose: 25.0 mg/kg/injection, schedule: Q01DX009 (ip), vehicle: saline with Tween-80) 129 and 133 % of control; under setting [4], 145 % of control; under setting [13], 141 % of control. In addition, the survivor count is given as 2 of 6 under setting [4]; 0 of 6 under setting [13]; 0 of 6, 2 of 6, 3 of 6 (dose: 100.0 mg/kg/injection, schedule: Q01DX009 (ip), vehicle: saline with Tween-80); 3 of 6 under setting [10]; 0 of 6 under setting [11].
